Assay results reported in the supplement of paper PMC6078165.
Values are relative to the signal before dosing, not to a vehicle control; the signal also falls without drug.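 Labels refer to human fibroblasts, largely primary: uterine (C12385, HUF), lung (H6013), bone (Hs27A), adrenal (HADF), skin (WS1), plus mammary HMF and breast cancer-associated Hs343T. Cancer lines are basal-like or mesenchymal-like triple-negative breast cancer. The paper counts as hits responses shifting over 3x the replicate standard deviation. The tissue of the other fibroblasts is not given here.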

Tested on: HCC1143
Assay: relative JC-1 red fluorescence (viability) vs pre-drug, coculture with fibroblast (fraction); higher = more viable cancer cells
Experimental: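 JC-1 labelled TNBC cells cocultured 1:1 (1,500 cells each) with CellTrace Violet stained primary or stromal fibroblasts in 384-well plates in FluoroBrite medium, treated with one of 42 anticancer drugs at 0.1, 1, 10 or 100 uM. JC-1 red fluorescence (mitochondrial integrity in cancer cells only) was read by plate reader every 8 h for 72 h. Values are normalised to each well's pre-drug value. The stock of one drug was tenfold lower, so its dose labels may be too high.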

CCCCCOC(=O)Nc1nc(=O)n([C@@H]2O[C@H](C)[C@@H](O)[C@H]2O)cc1F [Capecitabine]
relative JC-1 red fluorescence
Details | 8 h | 16 h | 24 h | 32 h | 40 h | 48 h | 56 h | 64 h | 72 h
0.1 µM, coculture fibroblast: C12385 | 0.838 | 0.74 | 0.651 | 0.5794 | 0.5128 | 0.4487 | 0.405 | 0.358 | 0.3352
0.1 µM, coculture fibroblast: H6013 | 0.7287 | 0.6665 | 0.638 | 0.638 | 0.553 | 0.542 | 0.508 | 0.492 | 0.476
0.1 µM, coculture fibroblast: H6019 | 0.8 | 0.70467 | 0.649 | 0.578 | 0.538 | 0.502 | 0.454 | 0.401 | 0.363
0.1 µM, coculture fibroblast: H6076 | 0.81 | 0.837 | 0.7649 | 0.676 | 0.662 | 0.633 | 0.587 | 0.549 | 0.551
0.1 µM, coculture fibroblast: H6231 | 0.862 | 0.875 | 0.761 | 0.649 | 0.649 | 0.615 | 0.569 | 0.525 | 0.501
0.1 µM, coculture fibroblast: HADF | 0.7178 | 0.65 | 0.618 | 0.613 | 0.5164 | 0.496 | 0.454 | 0.425 | 0.411
0.1 µM, coculture fibroblast: HCFa | 0.774 | 0.702 | 0.669 | 0.642 | 0.564 | 0.538 | 0.486 | 0.455 | 0.422
0.1 µM, coculture fibroblast: HCPF | 0.83 | 0.776 | 0.7295 | 0.659 | 0.6335 | 0.608 | 0.567 | 0.53 | 0.516
0.1 µM, coculture fibroblast: HHSteC | 0.794 | 0.698 | 0.658 | 0.605 | 0.516 | 0.491 | 0.442 | 0.413 | 0.371
0.1 µM, coculture fibroblast: HMF | 0.7984 | 0.855 | 0.773 | 0.63 | 0.649 | 0.606 | 0.559 | 0.518 | 0.484
0.1 µM, coculture fibroblast: HPFa | 0.906 | 0.79 | 0.744 | 0.6489 | 0.5736 | 0.534 | 0.477 | 0.428 | 0.382
0.1 µM, coculture fibroblast: HUF | 0.861 | 0.778 | 0.752 | 0.694 | 0.661 | 0.643 | 0.6 | 0.572 | 0.549
0.1 µM, coculture fibroblast: Hs5 | 0.8951 | 0.917 | 0.871 | 0.8326 | 0.775 | 0.739 | 0.703 | 0.666 | 0.652
0.1 µM, coculture fibroblast: Hs27A | 0.6766 | 0.587 | 0.552 | 0.567 | 0.435 | 0.416 | 0.367 | 0.335 | 0.313
0.1 µM, coculture fibroblast: Hs343T | 0.836 | 0.85 | 0.788 | 0.705 | 0.685 | 0.66 | 0.615 | 0.575 | 0.55
0.1 µM, coculture fibroblast: WS1 | 0.813 | 0.733 | 0.681 | 0.5951 | 0.533 | 0.488 | 0.448 | 0.407 | 0.378
1 µM, coculture fibroblast: C12385 | 0.87 | 0.747 | 0.683 | 0.622 | 0.555 | 0.516 | 0.48 | 0.446 | 0.436
1 µM, coculture fibroblast: H6013 | 0.781 | 0.693 | 0.663 | 0.662 | 0.593 | 0.586 | 0.551 | 0.531 | 0.486
1 µM, coculture fibroblast: H6019 | 0.801 | 0.701 | 0.655 | 0.596 | 0.555 | 0.536 | 0.493 | 0.446 | 0.421
1 µM, coculture fibroblast: H6076 | 0.82 | 0.794 | 0.7388 | 0.675 | 0.6456 | 0.627 | 0.597 | 0.574 | 0.569
1 µM, coculture fibroblast: H6231 | 0.8295 | 0.779 | 0.68 | 0.627 | 0.591 | 0.562 | 0.526 | 0.497 | 0.477
1 µM, coculture fibroblast: HADF | 0.741 | 0.641 | 0.62 | 0.624 | 0.544 | 0.527 | 0.492 | 0.467 | 0.45
1 µM, coculture fibroblast: HCFa | 0.7386 | 0.626 | 0.583 | 0.554 | 0.461 | 0.431 | 0.38 | 0.352 | 0.323
1 µM, coculture fibroblast: HCPF | 0.8164 | 0.832 | 0.7605 | 0.63 | 0.6666 | 0.6233 | 0.5706 | 0.534 | 0.5072
1 µM, coculture fibroblast: HHSteC | 0.917 | 0.87 | 0.856 | 0.85 | 0.808 | 0.791 | 0.748 | 0.723 | 0.648
1 µM, coculture fibroblast: HMF | 0.8229 | 0.837 | 0.753 | 0.636 | 0.634 | 0.606 | 0.5423 | 0.5151 | 0.48
1 µM, coculture fibroblast: HPFa | 0.9054 | 0.7956 | 0.767 | 0.673 | 0.615 | 0.575 | 0.51 | 0.468 | 0.427
1 µM, coculture fibroblast: HUF | 0.87077 | 0.758 | 0.709 | 0.643 | 0.599 | 0.575 | 0.527 | 0.487 | 0.46
1 µM, coculture fibroblast: Hs5 | 0.874 | 0.81 | 0.78 | 0.754 | 0.68 | 0.653 | 0.624 | 0.595 | 0.587
1 µM, coculture fibroblast: Hs27A | 0.715 | 0.642 | 0.594 | 0.604 | 0.497 | 0.5 | 0.4524 | 0.4271 | 0.38
1 µM, coculture fibroblast: Hs343T | 0.809 | 0.784 | 0.7174 | 0.627 | 0.594 | 0.554 | 0.509 | 0.487 | 0.46
1 µM, coculture fibroblast: WS1 | 0.854 | 0.736 | 0.682 | 0.599 | 0.543 | 0.501 | 0.456 | 0.408 | 0.381
10 µM, coculture fibroblast: C12385 | 0.86744 | 0.758 | 0.6886 | 0.615 | 0.559 | 0.512 | 0.47 | 0.428 | 0.405
10 µM, coculture fibroblast: H6013 | 0.776 | 0.692 | 0.658 | 0.647 | 0.591 | 0.585 | 0.554 | 0.532 | 0.496
10 µM, coculture fibroblast: H6019 | 0.799 | 0.714 | 0.661 | 0.602 | 0.565 | 0.532 | 0.481 | 0.427 | 0.389
10 µM, coculture fibroblast: H6076 | 0.814 | 0.8806 | 0.8078 | 0.6841 | 0.68 | 0.648 | 0.604 | 0.563 | 0.554
10 µM, coculture fibroblast: H6231 | 0.8426 | 0.925 | 0.795 | 0.594 | 0.667 | 0.619 | 0.576 | 0.525 | 0.491
10 µM, coculture fibroblast: HADF | 0.706 | 0.62 | 0.589 | 0.589 | 0.493 | 0.464 | 0.426 | 0.4 | 0.392
10 µM, coculture fibroblast: HCFa | 0.779 | 0.6657 | 0.62423 | 0.605 | 0.51 | 0.488 | 0.436 | 0.397 | 0.376
10 µM, coculture fibroblast: HCPF | 0.827 | 0.848 | 0.7698 | 0.636 | 0.663 | 0.618 | 0.584 | 0.548 | 0.523
10 µM, coculture fibroblast: HHSteC | 0.902 | 0.887 | 0.894 | 0.859 | 0.754 | 0.824 | 0.791 | 0.769 | 0.733
10 µM, coculture fibroblast: HMF | 0.827 | 0.8535 | 0.785 | 0.685 | 0.692 | 0.662 | 0.621 | 0.591 | 0.567
10 µM, coculture fibroblast: HPFa | 0.932 | 0.83 | 0.767 | 0.676 | 0.618 | 0.581 | 0.53 | 0.486 | 0.45
10 µM, coculture fibroblast: HUF | 0.879 | 0.766 | 0.6649 | 0.5809 | 0.523 | 0.4815 | 0.431 | 0.395 | 0.364
10 µM, coculture fibroblast: Hs5 | 0.874 | 0.827 | 0.908 | 0.83 | 0.793 | 0.754 | 0.718 | 0.676 | 0.655
10 µM, coculture fibroblast: Hs27A | 0.695 | 0.62 | 0.58 | 0.605 | 0.479 | 0.462 | 0.42 | 0.39 | 0.39
10 µM, coculture fibroblast: Hs343T | 0.825 | 0.8837 | 0.803 | 0.664 | 0.689 | 0.644 | 0.59 | 0.549 | 0.511
10 µM, coculture fibroblast: WS1 | 0.861 | 0.774 | 0.727 | 0.641 | 0.576 | 0.536 | 0.49 | 0.441 | 0.414
100 µM, coculture fibroblast: C12385 | 0.879 | 0.787 | 0.735 | 0.675 | 0.612 | 0.564 | 0.532 | 0.489 | 0.461
100 µM, coculture fibroblast: H6013 | 0.783 | 0.674 | 0.635 | 0.618 | 0.558 | 0.54774 | 0.5184 | 0.507 | 0.477
100 µM, coculture fibroblast: H6019 | 0.83 | 0.766 | 0.734 | 0.679 | 0.657 | 0.64 | 0.614 | 0.584 | 0.562
100 µM, coculture fibroblast: H6076 | 0.805 | 0.809 | 0.7541 | 0.691 | 0.657 | 0.6462 | 0.62 | 0.597 | 0.592
100 µM, coculture fibroblast: H6231 | 0.8469 | 0.845 | 0.748 | 0.677 | 0.661 | 0.631 | 0.597 | 0.563 | 0.551
100 µM, coculture fibroblast: HADF | 0.7504 | 0.6623 | 0.6207 | 0.6269 | 0.529 | 0.499 | 0.468 | 0.442 | 0.43
100 µM, coculture fibroblast: HCFa | 0.789 | 0.675 | 0.637 | 0.617 | 0.519 | 0.489 | 0.443 | 0.41 | 0.392
100 µM, coculture fibroblast: HCPF | 0.837 | 0.809 | 0.768 | 0.7 | 0.68 | 0.65 | 0.624 | 0.598 | 0.584
100 µM, coculture fibroblast: HHSteC | 0.8268 | 0.7185 | 0.6821 | 0.6336 | 0.554 | 0.53 | 0.485 | 0.456 | 0.406
100 µM, coculture fibroblast: HMF | 0.827 | 0.841 | 0.812 | 0.753 | 0.746 | 0.727 | 0.691 | 0.668 | 0.642
100 µM, coculture fibroblast: HPFa | 0.924 | 0.812 | 0.762 | 0.674 | 0.622 | 0.584 | 0.528 | 0.494 | 0.458
100 µM, coculture fibroblast: HUF | 0.891 | 0.808 | 0.713 | 0.64 | 0.589 | 0.552 | 0.497 | 0.458 | 0.427
100 µM, coculture fibroblast: Hs5 | 0.88 | 0.872 | 0.824 | 0.7793 | 0.721 | 0.6934 | 0.6636 | 0.6351 | 0.632
100 µM, coculture fibroblast: Hs27A | 0.728 | 0.652 | 0.619 | 0.643 | 0.511 | 0.495 | 0.462 | 0.451 | 0.474
100 µM, coculture fibroblast: Hs343T | 0.80283 | 0.806 | 0.74 | 0.678 | 0.6401 | 0.603 | 0.567 | 0.542 | 0.514
100 µM, coculture fibroblast: WS1 | 0.836 | 0.7358 | 0.684 | 0.62 | 0.568 | 0.535 | 0.494 | 0.4611 | 0.438
